In patent US20050043221A1 (BROWN UNIVERSITY, published 2005):
These are yes or no findings as the source states them, for the method shown. For part of these data: In cells and extracts the contact can be indirect. Some results given as binding are weak or reduced against the parent protein; the word gives no strength. Sequences can lack the tags named with a protein.

Experiments:
[1] = molecular target: T1, α-sarcoglycan, 35S-methionine-labelled, in vitro translated (human) (UniProt Q16586); assay: blot overlay
T1 sequence (looked up): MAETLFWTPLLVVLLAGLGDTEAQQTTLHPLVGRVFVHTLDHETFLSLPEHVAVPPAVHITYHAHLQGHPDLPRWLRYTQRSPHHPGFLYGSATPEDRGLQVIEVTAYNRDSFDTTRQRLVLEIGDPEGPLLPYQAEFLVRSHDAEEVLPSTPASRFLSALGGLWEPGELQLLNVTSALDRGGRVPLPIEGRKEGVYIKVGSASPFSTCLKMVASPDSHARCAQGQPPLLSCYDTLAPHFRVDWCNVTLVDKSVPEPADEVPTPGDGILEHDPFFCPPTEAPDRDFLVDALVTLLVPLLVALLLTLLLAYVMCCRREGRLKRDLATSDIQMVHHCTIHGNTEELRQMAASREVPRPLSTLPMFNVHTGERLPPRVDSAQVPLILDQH

[2] = molecular target: T1, α-sarcoglycan, 35S-methionine-labelled, in vitro translated (human); assay: blot overlay with 35S in vitro translated sarcoglycan
[3] = molecular target: T2, recombinant human biglycan core polypeptide (no side chains), His-tagged, vaccinia system (human) (UniProt P21810); assay: blot overlay on purified recombinant biglycan core (FIG. 17C)
T2 sequence: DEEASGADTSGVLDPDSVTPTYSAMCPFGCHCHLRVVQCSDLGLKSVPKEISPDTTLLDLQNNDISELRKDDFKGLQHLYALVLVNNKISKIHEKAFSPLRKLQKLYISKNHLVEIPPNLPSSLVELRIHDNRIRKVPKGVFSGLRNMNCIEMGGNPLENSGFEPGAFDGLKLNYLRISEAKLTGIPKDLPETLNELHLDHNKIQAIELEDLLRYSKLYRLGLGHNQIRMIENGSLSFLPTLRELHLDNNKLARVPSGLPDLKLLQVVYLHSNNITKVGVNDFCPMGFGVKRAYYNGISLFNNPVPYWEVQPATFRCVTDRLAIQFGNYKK

[4] = molecular target: T2, recombinant human biglycan core polypeptide (no side chains), His-tagged, vaccinia system (human); assay: blot overlay, 1 µg of purified recombinant protein (FIG. 19B)
[5] = molecular target: T2, recombinant human biglycan core polypeptide (no side chains), His-tagged, vaccinia system (human); assay: blot overlay with 35S in vitro translated sarcoglycan (FIG. 8A)
[6] = molecular target: T2, recombinant human biglycan core polypeptide (no side chains), His-tagged, vaccinia system (human); assay: co-immunoprecipitation in solution with anti-biglycan or anti-poly-His, protein G beads (FIG. 18A)

Measured: binding

B1: recombinant human biglycan core polypeptide (no side chains), His-tagged, vaccinia system (protein, not shown: small tags and cut ends)
chain: T2 sequence
binds: [1] | [2]

B2: α-sarcoglycan, 35S-methionine-labelled, in vitro translated (protein, human, UniProt Q16586 1-387, looked up)
chain: T1 sequence (looked up)
binds: [3] | [4] | [5] | [6]
